According to PubChem BioAssay (Tox21):
Where “and” joins values, the source holds several entries; their conditions need not be identical. Equal entries are not always repeated. Inconclusive results, whose numbers are uncertain, are shown with a selection of clear calls. For some assays here: Potencies beside an inconclusive call are fits to weak or partial responses and may not hold up. Calls of active or inactive are those of the source. Calls come from the whole dose curve; as a rule, active = well fitted curve in the direction sought with a large enough effect in the repeat runs; inconclusive = weak or mixed curves; inactive = no such curve, though single readings can be large; an effect the other way counts as inactive or inconclusive.

The chains behind the UniProt entries cited, without tags or fusion partners. Where a name states a change or a piece, a line headed by the entry shows the natural chain unless it says otherwise.
UniProt Q12809: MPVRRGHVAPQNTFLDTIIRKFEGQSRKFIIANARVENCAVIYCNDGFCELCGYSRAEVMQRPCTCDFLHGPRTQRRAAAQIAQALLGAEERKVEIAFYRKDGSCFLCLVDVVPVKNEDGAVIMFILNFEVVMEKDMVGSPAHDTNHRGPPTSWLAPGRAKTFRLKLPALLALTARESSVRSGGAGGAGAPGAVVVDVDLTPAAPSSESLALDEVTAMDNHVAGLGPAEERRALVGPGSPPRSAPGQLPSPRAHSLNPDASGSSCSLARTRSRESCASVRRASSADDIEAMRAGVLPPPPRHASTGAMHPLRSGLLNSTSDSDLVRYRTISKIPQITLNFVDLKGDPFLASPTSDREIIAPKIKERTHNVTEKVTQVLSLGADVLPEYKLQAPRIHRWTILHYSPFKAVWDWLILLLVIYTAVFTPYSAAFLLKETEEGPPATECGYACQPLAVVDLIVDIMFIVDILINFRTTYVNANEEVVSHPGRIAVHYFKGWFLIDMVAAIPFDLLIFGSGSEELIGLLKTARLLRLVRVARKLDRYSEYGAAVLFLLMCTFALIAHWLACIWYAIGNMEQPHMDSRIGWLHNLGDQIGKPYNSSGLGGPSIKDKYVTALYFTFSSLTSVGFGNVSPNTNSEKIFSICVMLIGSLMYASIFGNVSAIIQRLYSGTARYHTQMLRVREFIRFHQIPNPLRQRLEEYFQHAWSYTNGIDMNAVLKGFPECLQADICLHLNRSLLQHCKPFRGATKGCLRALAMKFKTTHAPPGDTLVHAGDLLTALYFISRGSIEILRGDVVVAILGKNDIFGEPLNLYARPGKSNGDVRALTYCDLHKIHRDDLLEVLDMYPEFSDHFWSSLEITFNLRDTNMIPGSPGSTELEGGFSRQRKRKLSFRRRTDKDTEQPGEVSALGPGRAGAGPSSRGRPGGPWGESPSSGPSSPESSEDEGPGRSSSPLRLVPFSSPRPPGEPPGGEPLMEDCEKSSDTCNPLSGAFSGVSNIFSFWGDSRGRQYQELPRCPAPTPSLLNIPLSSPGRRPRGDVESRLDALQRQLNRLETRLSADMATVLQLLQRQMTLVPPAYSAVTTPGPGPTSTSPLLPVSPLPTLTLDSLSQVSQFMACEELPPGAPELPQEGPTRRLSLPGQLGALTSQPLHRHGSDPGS
UniProt P11712, whole entry, looked up: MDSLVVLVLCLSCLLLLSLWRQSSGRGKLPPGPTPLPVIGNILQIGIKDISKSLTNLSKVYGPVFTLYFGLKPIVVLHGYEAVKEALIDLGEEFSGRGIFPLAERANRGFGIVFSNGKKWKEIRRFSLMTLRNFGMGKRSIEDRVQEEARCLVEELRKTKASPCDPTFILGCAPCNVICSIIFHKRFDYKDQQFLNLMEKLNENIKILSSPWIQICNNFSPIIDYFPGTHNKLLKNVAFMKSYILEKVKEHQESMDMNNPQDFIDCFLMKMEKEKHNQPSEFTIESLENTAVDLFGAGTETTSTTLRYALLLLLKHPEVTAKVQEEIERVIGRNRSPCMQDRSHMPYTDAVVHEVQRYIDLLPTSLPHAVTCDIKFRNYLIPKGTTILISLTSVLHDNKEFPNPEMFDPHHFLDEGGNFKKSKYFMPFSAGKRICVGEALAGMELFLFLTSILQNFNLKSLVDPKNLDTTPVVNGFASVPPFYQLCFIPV
UniProt P05177, whole entry, looked up: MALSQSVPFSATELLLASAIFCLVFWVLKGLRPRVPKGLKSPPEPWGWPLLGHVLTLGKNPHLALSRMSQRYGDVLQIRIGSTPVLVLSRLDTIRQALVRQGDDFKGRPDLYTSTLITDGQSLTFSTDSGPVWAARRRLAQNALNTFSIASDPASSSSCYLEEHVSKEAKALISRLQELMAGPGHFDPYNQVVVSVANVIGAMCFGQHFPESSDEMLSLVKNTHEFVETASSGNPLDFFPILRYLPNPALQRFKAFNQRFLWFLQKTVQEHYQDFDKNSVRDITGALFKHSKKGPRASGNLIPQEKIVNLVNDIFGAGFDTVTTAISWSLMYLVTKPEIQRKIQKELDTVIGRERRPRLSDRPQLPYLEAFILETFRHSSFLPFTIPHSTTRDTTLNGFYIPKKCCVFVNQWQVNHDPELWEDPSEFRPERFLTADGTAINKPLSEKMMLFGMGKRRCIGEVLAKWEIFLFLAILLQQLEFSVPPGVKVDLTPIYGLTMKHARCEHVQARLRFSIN
UniProt P08684, whole entry, looked up: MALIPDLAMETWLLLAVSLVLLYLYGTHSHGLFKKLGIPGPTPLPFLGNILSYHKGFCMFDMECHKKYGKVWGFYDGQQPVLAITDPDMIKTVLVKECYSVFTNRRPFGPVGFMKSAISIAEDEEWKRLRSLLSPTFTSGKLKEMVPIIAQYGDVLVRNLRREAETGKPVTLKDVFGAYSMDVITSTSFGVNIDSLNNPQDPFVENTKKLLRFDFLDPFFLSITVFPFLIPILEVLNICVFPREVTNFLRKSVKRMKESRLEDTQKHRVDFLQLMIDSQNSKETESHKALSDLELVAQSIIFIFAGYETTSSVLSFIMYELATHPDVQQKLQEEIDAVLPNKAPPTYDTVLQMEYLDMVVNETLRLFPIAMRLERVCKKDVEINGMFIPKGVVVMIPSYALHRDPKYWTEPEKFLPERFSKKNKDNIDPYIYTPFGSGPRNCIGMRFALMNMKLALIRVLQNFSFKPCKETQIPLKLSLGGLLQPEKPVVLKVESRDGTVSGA
UniProt Q9R1A7: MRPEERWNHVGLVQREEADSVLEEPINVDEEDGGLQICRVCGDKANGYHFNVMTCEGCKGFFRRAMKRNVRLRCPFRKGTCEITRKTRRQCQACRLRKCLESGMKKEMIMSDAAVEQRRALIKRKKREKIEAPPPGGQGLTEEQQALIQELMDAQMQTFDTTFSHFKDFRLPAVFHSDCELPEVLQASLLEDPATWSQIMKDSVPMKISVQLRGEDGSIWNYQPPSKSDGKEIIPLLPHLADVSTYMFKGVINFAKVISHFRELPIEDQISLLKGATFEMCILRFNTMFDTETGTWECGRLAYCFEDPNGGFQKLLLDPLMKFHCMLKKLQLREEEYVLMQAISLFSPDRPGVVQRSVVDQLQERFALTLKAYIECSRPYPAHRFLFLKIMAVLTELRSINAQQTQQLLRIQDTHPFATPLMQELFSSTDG
UniProt P10635, whole entry, looked up: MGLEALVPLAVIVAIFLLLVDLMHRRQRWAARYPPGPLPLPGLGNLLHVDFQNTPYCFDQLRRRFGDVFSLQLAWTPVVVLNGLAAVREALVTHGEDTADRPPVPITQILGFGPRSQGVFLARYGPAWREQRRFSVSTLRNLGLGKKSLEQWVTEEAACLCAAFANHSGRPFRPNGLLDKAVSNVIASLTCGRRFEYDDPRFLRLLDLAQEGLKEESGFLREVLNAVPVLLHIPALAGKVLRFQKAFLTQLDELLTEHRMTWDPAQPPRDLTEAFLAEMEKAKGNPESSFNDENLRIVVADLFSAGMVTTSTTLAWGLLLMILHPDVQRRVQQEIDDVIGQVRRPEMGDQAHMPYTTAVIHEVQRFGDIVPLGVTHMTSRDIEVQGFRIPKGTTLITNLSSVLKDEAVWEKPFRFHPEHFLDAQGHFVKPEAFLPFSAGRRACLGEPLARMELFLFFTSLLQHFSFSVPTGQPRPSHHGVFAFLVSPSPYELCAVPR
UniProt P33261, whole entry, looked up: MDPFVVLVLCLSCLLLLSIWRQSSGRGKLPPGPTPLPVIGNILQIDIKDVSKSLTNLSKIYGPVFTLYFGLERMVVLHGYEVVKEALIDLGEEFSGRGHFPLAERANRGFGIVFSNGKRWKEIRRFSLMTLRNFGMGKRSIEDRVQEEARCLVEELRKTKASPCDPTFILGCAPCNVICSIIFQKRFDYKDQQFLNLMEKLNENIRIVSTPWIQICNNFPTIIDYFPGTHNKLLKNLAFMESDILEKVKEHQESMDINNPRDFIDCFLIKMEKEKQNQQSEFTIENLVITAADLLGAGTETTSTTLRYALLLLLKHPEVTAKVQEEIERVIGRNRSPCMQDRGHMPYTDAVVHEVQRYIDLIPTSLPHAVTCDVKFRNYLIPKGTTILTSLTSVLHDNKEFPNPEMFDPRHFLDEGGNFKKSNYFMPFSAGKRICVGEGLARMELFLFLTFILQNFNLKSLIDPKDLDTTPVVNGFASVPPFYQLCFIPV

Legend:
[1] = biological target: Nuclear receptor subfamily 1 group I member 2 (Homo sapiens) (UniProt O75469); experiment: Human pregnane X receptor (PXR) small molecule agonists, qHTS assay (AID 1346982); note: nearly all actives have a fitted effect of over 35% in size; note: potency is the fitted concentration of half-maximal effect
Procedure, shortened: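 PXR-Luc HepG2 cells (CYP3A4 promoter-driven luciferase) were seeded in medium with 5% charcoal-stripped FBS, left 5 hr at 37 C, then exposed to compounds in DMSO for 24 hr. Luminescence was read after ONE-Glo addition.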

[2] = biological target: Voltage-gated inwardly rectifying potassium channel KCNH2 (Homo sapiens) (UniProt Q12809); experiment: Human Ether-a-go-go-Related Gene (hERG) channel small molecule antagonists: fluorescence cell-based qHTS assay (AID 1671200); note: nearly all actives have a fitted effect of over 50% in size; note: potency is the fitted concentration of half-maximal effect
Procedure, shortened: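 First, 1000 cells per well are seeded and cultured overnight at 37 C. Next, FluxOR II dye is loaded for 1 h at room temperature, protected from light. After 10 more minutes, stimulus is added and fluorescence is read.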

[3] = biological target: Cytochrome P450 2C9 (Homo sapiens) (UniProt P11712); experiment: Cytochrome P450 Family 2 Subfamily C Member 9 (CYP2C9) small molecule antagonists: luciferase reporter qHTS assay (AID 1671198); note: nearly all actives have a fitted effect of over 50% in size; note: potency is the fitted concentration of half-maximal effect
Procedure, shortened: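 P450-Glo proluciferin substrate with CYP2C9 enzyme; 10 min RT preincubation, then NADPH regeneration 1 h at 37C; luciferin detection reagent 20 min RT, luminescence in relative luminescence units.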

[4] = biological target: Cytochrome P450 1A2 (Homo sapiens) (UniProt P05177); experiment: Cytochrome P450 Family 1 Subfamily A Member 2 (CYP1A2) small molecule antagonists: luciferase reporter qHTS assay (AID 1671199); note: nearly all actives have a fitted effect of over 50% in size; note: potency is the fitted concentration of half-maximal effect
Procedure, shortened: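 Human CYP1A2 activity measured with a P450-Glo proluciferin substrate; compounds in DMSO preincubated 10 min at room temperature with enzyme-substrate mix, then NADPH regeneration system added for 1 h. Luciferin detection reagent, 20 min, luminescence read.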

[5] = biological target: Cytochrome P450 3A4 (Homo sapiens) (UniProt P08684); experiment: Cytochrome P450 Family 3 Subfamily A Member 4 (CYP3A4) small molecule antagonists: luciferase reporter qHTS assay (AID 1671201); note: nearly all actives have a fitted effect of over 50% in size; note: potency is the fitted concentration of half-maximal effect
Procedure, shortened: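 Enzyme and proluciferin substrate are mixed with test chemicals for 10 min, then NADPH regeneration system drives turnover for 1 h at room temperature. A detection reagent halts the reaction; luminescence after 20 min gives relative activity.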

[6] = biological target: Nuclear receptor subfamily 1 group I member 2 (Rattus norvegicus) (UniProt Q9R1A7); experiment: Rat pregnane X receptor (rPXR) activation by small molecules, qHTS assay (AID 1346983); settings: rPXR luciferase reporter cells, One-Glo luminescence, 24 h; max activation: stronger effect = higher value; note: potency is the fitted concentration of half-maximal effect; nearly all actives have a fitted effect of over 20% in size
Procedure, shortened: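 Cell-based rPXR activation assay: rPXR cells, 2,000 per well, rested 5hr at 37 C, then exposed to compounds in DMSO for 24 hr at 37 C. Luciferase activity read by One-Glo luminescence after 30 min at room temperature.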

[7] = biological target: Nuclear receptor subfamily 1 group I member 2 (Homo sapiens) (UniProt O75469); experiment: Human pregnane X receptor (PXR) activation by small molecules, qHTS assay (AID 1346985); note: nearly all actives have a fitted effect of over 40% in size
Procedure, shortened: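 DPX-2 cells (HepG2 co-transfected with a PXR response element and a CYP3A4-promoter luciferase construct) were seeded at 2,000 per well, rested 5 hr at 37C, then exposed to DMSO-dissolved compounds for 24 hr. Activation was read as luciferase luminescence.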

[8] = biological target: Cytochrome P450 2D6 (Homo sapiens) (UniProt P10635); experiment: Cytochrome P450 Family 2 Subfamily D Member 6 (CYP2D6) small molecule antagonists: luciferase reporter qHTS assay (AID 1671196)
Procedure, shortened: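 CYP2D6 enzyme–substrate mix was held with compound for 10 min at room temperature, then NADPH regeneration solution was added and the reaction ran 1 h at room temperature. Luciferin product was detected by luminescence after 20 min with detection reagent.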

[9] = biological target: Cytochrome P450 2C19 (Homo sapiens) (UniProt P33261); experiment: Cytochrome P450 Family 2 Subfamily C Member 19 (CYP2C19) small molecule antagonists: luciferase reporter qHTS assay (AID 1671197); note: series mostly up to about 120 µM; nearly all actives have a fitted effect of over 65% in size
Procedure, shortened: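 Relative luminescence units recorded 20 min after the detection reagent stopped a 1 h, 37C CYP2C19 reaction on proluciferin substrate, which was started by NADPH regeneration following 10 min room-temperature compound preincubation; ketoconazole positive control.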

Cc1cc(=O)oc2cc(O[C@@H]3SC[C@@H](O)[C@H](O)[C@H]3O)ccc12
Potency [1]: inactive
Potency [2]: inactive

CCCCNc1ccc(C(=O)OCCN(CC)CC)cc1
Potency [1]: inconclusive: 29.8 µM [activator]
Potency [3]: inconclusive: 38.9 µM [inhibitor, partial curve, poor fit]
Potency [4]: inconclusive: 28.8 µM [inhibitor, partial curve]
Potency [2]: inconclusive: 19 µM [inhibitor, partial curve]

C=CCOc1c(Br)cc(Br)cc1Br
Potency [1]: inactive
Potency [5]: inconclusive: 25.2 µM [inhibitor, full curve]

Cc1occc(=O)c1O
Potency [1]: inactive
Potency [3]: inconclusive: 79.7 µM [inhibitor, partial curve, poor fit] and inconclusive: 83.5 µM [inhibitor, single point]
Potency [4]: inconclusive: 83.5 µM [inhibitor, partial curve, poor fit]

FC(F)(F)c1ccc(Cl)c(Cl)c1
Potency [1]: inactive
Potency [4]: inconclusive: 69.4 µM [inhibitor] and inconclusive: 63.3 µM [inhibitor, partial curve]
Potency [5]: inactive

CNCCc1ccccn1
Potency [1]: inactive
Potency [3]: inactive
Potency [4]: inactive

N#CCC(=O)O
Potency [1]: inconclusive: 67.1 µM [activator, single point] and inconclusive: 61.1 µM [activator, single point]
Potency [4]: inactive and inconclusive: 79.6 µM [inhibitor, partial curve, poor fit]

COc1cccc(O)c1
Potency [1]: inactive
Potency [4]: inconclusive: 44.8 µM [inhibitor, partial curve]

C[N+](C)(CCOc1ccccc1)Cc1cccs1
Potency [1]: inconclusive: 6.68 µM [activator, single point]
Potency [4]: inactive
Potency [2]: inconclusive: 10.7 µM [inhibitor, partial curve, poor fit]

CC(C)CCCCCOC(=O)CCCCC(=O)OCCCCCC(C)C
Potency [1]: inconclusive: 54.5 µM [activator, partial curve, poor fit]
Potency [3]: active: 63.3 µM
Potency [5]: active: 35.6 µM

C[C@]12C=CC(=O)C=C1[C@@H](F)C[C@@H]1[C@@H]2[C@@H](O)C[C@@]2(C)[C@H]1CC[C@]2(O)C(=O)CO
Potency [6]: active: 12.6 µM

NS(=O)(=O)c1cc2c(cc1Cl)CN(C1CCCCC1)C2=O
Potency [1]: active: 29.8 µM
Potency [4]: inactive

CCCc1cc(=O)[nH]c(=S)[nH]1
Potency [1]: inconclusive: 70.8 µM [activator, single point]
Potency [3]: inconclusive: 79.6 µM [inhibitor, partial curve, poor fit]
Potency [4]: inconclusive: 32.7 µM [inhibitor, partial curve] and inconclusive: 39.9 µM [inhibitor, partial curve]

CC(=O)Nc1ccc(C)c(Cl)c1
Potency [1]: inconclusive: 77 µM [activator, partial curve, poor fit]
Potency [4]: active: 8.94 µM
Potency [5]: active: 39.9 µM

CC(=O)OC(C)OC(C)=O
Potency [1]: inactive
Potency [4]: inconclusive: 32.7 µM [inhibitor, partial curve]

COC(=O)C(C)O (centres undefined)
Potency [1]: inactive
Potency [4]: inconclusive: 40.8 µM [inhibitor, partial curve]

c1ccc2c(c1)ccc1ccccc12
Potency [1]: inconclusive: 53 µM [activator, partial curve]
Potency [3]: inconclusive: 69.1 µM [inhibitor, partial curve] and inconclusive: 44.8 µM [inhibitor]
Potency [4]: active: 6.16 µM and active: 3.99 µM
Potency [5]: inactive

NNc1nnc(NN)c2ccccc12
Potency [6]: inconclusive: 14.1 µM [activator, partial curve]
Potency [7]: inactive
Potency [8]: inconclusive: 17.4 µM [inhibitor]
Potency [9]: inactive
Potency [3]: active: 34.7 µM

CC1=C(C)C(=O)C(C(CCCCCC(=O)O)c2ccccc2)=C(C)C1=O (centres undefined)
Potency [1]: inactive
Potency [4]: inactive

CCCCC(CC)C(=O)OCCOCCOCCOCCOC(=O)C(CC)CCCC (centres undefined)
Potency [1]: active: 48.6 µM
Potency [3]: active: 12.6 µM
Potency [4]: active: 31.7 µM
Potency [2]: inconclusive: 19.5 µM [inhibitor, partial curve]

Cc1cccc(C)c1NC(=O)CN1CCCC1
Potency [1]: inactive
Potency [4]: inactive
